The source of these data is patent US7326733B2, “Methods for increasing bone density” (The Forsyth Institute, priority 2003, dated 2008).

One data set concerns IκBA. As to conditions: fluoxetine-treated RANKL-stimulated cells compared to cells without fluoxetine.
Another data set relates to unstimulated RAW 264.7. As to conditions: unstimulated RAW 264.7, fluoxetine. As to the method:
RAW 264.7 mouse macrophage/monocytes (TIB-71) were purchased from ATCC (Manassas, Va.). Cells were cultured in DMEM/1.5 g/l sodium bicarbonate (JRH Biosciences, Lenexa, Kans.) plus 10% non-heat-inactivated FBS (Invitrogen Corporation Carlsbad, Calif.). When needed, 5-HT was stripped from the FBS by incubating it twice in 0.25% Dextran-coated charcoal (Sigma-Aldrich, St. Louis, Mo.) for 30 minutes at 45° C. Recombinant mouse soluble RANKL (Immunex Corp., Seattle, Wash.) was added at a concentration of 10 ng/ml. Recombinant murine RANKL is an NH2-terminal fusion of a leucine zipper trimerization domain (Fanslow et al., 1994, Semin. Immunol. 6(5):267-278) with residues 134-316 of murine RANKL. […] Cultures were also exposed to the VMAT inhibitor reserpine and the MAO-B inhibitor pargylline (Sigma-Aldrich, St. Louis, Mo.), at the indicated concentrations for 4 days. Mouse bone marrow cells were obtained from long bones of 2-week old C57B1 mice and cultured for 7 days in αMEM/FBS supplemented with 50 ng/ml RANKL and 50 ng/ml human M-CSF (PeproTech Inc., Rocky Hill, N.J.).

In the case of `CNCCC(Oc1ccc(C(F)(F)F)cc1)c1ccccc1.Cl` (racemic) [fluoxetine, (+/−)—N-methyl-3-phenyl-3-[(α,α,α-trifluoro-p-tolyl)oxy]propylamine hydrochloride], in the data set on IκBA, the “levels of the inhibitor IκBA” value is listed as “elevated”. Besides, the proliferation result in the data set with unstimulated RAW 264.7 is recorded as “unaffected”.
